{"source": "paper doi:10.1101/2023.08.14.553183", "molecules": {"B1": {"name": "L3MBTL3, endogenous in PaTu8988t cells (protein, UniProt Q96JM7 1-780)", "chain": "MTESASSTSGQEFDVFSVMDWKDGVGTLPGSDLKFRVNEFGALEVITDENEMENVKKATATTTWMVPTAQEAPTSPPSSRPVFPPAYWTSPPGCPTVFSEKTGMPFRLKDPVKVEGLQFCENCCQYGNVDECLSGGNYCSQNCARHIKDKDQKEERDVEEDNEEEDPKCSRKKKPKLSLKADTKEDGEERDDEMENKQDVRILRGSQRARRKRRGDSAVLKQGLPPKGKKAWCWASYLEEEKAVAVPAKLFKEHQSFPYNKNGFKVGMKLEGVDPEHQSVYCVLTVAEVCGYRIKLHFDGYSDCYDFWVNADALDIHPVGWCEKTGHKLHPPKGYKEEEFNWQTYLKTCKAQAAPKSLFENQNITVIPSGFRVGMKLEAVDKKNPSFICVATVTDMVDNRFLVHFDNWDESYDYWCEASSPHIHPVGWCKEHRRTLITPPGYPNVKHFSWDKYLEETNSLPAPARAFKVKPPHGFQKKMKLEVVDKRNPMFIRVATVADTDDHRVKVHFDGWNNCYDYWIDADSPDIHPVGWCSKTGHPLQPPLSPLELMEASEHGGCSTPGCKGIGHFKRARHLGPHSAANCPYSEINLNKDRIFPDRLSGEMPPASPSFPRNKRTDANESSSSPEIRDQHADDVKEDFEERTESEMRTSHEARGAREEPTVQQAQRRSAVFLSFKSPIPCLPLRWEQQSKLLPTVAGIPASKVSKWSTDEVSEFIQSLPGCEEHGKVFKDEQIDGEAFLLMTQTDIVKIMSIKLGPALKIFNSILMFKAAEKNSHNEL"}, "B2": {"name": "L3MBTL4, endogenous in PaTu8988t cells (protein, UniProt Q8NA19 1-623)", "chain": "MKQPNRKRKLNMDSKERLDQDGRLEQAEEEKKPKDSTTPLSHVPSAAAQGAWSWEWYLKEQKAVAAPVELFSKDQSFPEHENGFQIGMRLEGIDPRHPSVFCVLSVAEVCGYRLRLHFDGYLSCYDFWTNAGSPDIHPVGWCEKTKHELHIPKGYRKDKFVWMDYLKACKLQNAPKKLFRNRSPNGPMSKEFQVGMKLEAVDRKNPSLVCVATIADIVEDRLLVHFDNWDDSYDYWCDVNSPYVQPVGWCQENGRTLIAPQGYPNPENFSWTEYLEATQTNAVPAKVFKMRLPHGFLPNMKLEVVDKRNPRLIRVATIVDVDDQRVKVHFDGWDHKYDYWVEADSPDIHPIGWCDVTGHPLEVPQRTNDLKILPGQAVCPTPGCRGIGHIRGPRYSGHHSAFGCPYSDMNLKKEATLHDRLREQTQANLESDSSHSKSKSLCSLNFNGKHEKVNSQPRLVQQAKCLKIKGKEDIDLDNLFRVLVLHPRGLEYSVEQAQQVLHQSVSMSTVSAHPFRDLPLGREQHCKLLPGVADIRASQVARWTVDEVAEFVQSLLGCEEHAKCFKKEQIDGKAFLLLTQTDIVKVMKIKLGPALKIYNSILMFRHSQELPEEDIASGQEVRG"}, "B3": {"name": "F-box only protein 11 (FBXO11), endogenous in PaTu8988t cells (protein, UniProt Q86XK2 1-927)", "chain": "MNSVRAANRRPRRVSRPRPVQQQQQQPPQQPPPQPPQQQPPQQQPPPPPQQQQQQQPPPPPPPPPPLPQERNNVGERDDDVPADMVAEESGPGAQNSPYQLRRKTLLPKRTACPTKNSMEGASTSTTENFGHRAKRARVSGKSQDLSAAPAEQYLQEKLPDEVVLKIFSYLLEQDLCRAACVCKRFSELANDPILWKRLYMEVFEYTRPMMHPEPGKFYQINPEEYEHPNPWKESFQQLYKGAHVKPGFAEHFYSNPARYKGRENMLYYDTIEDALGGVQEAHFDGLIFVHSGIYTDEWIYIESPITMIGAAPGKVADKVIIENTRDSTFVFMEGSEDAYVGYMTIRFNPDDKSAQHHNAHHCLEITVNCSPIIDHCIIRSTCTVGSAVCVSGQGACPTIKHCNISDCENVGLYITDHAQGIYEDNEISNNALAGIWVKNHGNPIIRRNHIHHGRDVGVFTFDHGMGYFESCNIHRNRIAGFEVKAYANPTVVRCEIHHGQTGGIYVHEKGRGQFIENKIYANNFAGVWITSNSDPTIRGNSIFNGNQGGVYIFGDGRGLIEGNDIYGNALAGIQIRTNSCPIVRHNKIHDGQHGGIYVHEKGQGVIEENEVYSNTLAGVWVTTGSTPVLRRNRIHSGKQVGVYFYDNGHGVLEDNDIYNHMYSGVQIRTGSNPKIRRNKIWGGQNGGILVYNSGLGCIEDNEIFDNAMAGVWIKTDSNPTLRRNKIHDGRDGGICIFNGGRGLLEENDIFRNAQAGVLISTNSHPILRKNRIFDGFAAGIEITNHATATLEGNQIFNNRFGGLFLASGVNVTMKDNKIMNNQDAIEKAVSRGQCLYKISSYTSYPMHDFYRCHTCNTTDRNAICVNCIKKCHQGHDVEFIRHDRFFCDCGAGTLSNPCTLAGEPTHDTDTLYDSAPPIESNTLQHN"}}, "note": "No constants are given. Whether binding was seen depends on the method and setting. In cells and extracts the contact can be indirect. These calls come from enrichment with a bait or labelling near it, and not all partners need be listed. Tags and fused reporters may be left off the sequences shown.", "data": [{"molecular_target": "T1, FLAG-HA-ER-tagged SAMD1 (estrogen-receptor (ER)-SAMD1 fusion protein), stably expressed in PaTu8988t SAMD1 KO cells (UniProt Q6SPF0)", "T1 sequence": "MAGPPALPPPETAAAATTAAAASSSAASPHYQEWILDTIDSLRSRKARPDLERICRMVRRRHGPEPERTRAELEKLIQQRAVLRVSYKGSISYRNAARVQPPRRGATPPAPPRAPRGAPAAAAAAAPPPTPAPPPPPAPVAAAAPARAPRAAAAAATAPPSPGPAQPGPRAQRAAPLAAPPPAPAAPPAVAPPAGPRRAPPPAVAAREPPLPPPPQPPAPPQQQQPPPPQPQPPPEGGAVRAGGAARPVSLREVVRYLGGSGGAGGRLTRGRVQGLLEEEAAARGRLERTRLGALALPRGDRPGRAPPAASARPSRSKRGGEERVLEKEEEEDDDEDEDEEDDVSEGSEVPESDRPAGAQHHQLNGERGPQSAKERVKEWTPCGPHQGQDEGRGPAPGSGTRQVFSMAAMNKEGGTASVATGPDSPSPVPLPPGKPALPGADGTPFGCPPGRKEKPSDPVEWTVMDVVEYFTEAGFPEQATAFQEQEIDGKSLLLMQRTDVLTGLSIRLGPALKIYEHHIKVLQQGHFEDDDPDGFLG", "test": "affinity purification with mass spectrometry", "values": [{"molecule": "SKP1, endogenous in PaTu8988t cells (from UniProt P63208 1-163)", "binding": "binds"}, {"molecule": "B1", "binding": "binds"}, {"molecule": "B2", "binding": "binds"}, {"molecule": "B3", "binding": "binds"}]}]}
